The record followed here is PubChem BioAssay AID493014 (National Center for Advancing Translational Sciences (NCATS), 2011).

Some of the results follow. Further columns of the screen follow, without active or inactive calls. Most of these compounds were active or inconclusive in the main read-out, so they are no random draw. Words in brackets tell the shape of the fitted curve; partial curves, single points and poor fits give uncertain potencies.

This assay is described as follows: qHTS Assay to Find Inhibitors of Chronic Active B-Cell Receptor Signaling. Particulars: ABC-DLBCL IkBa-CBG/CBR reporter, luminescence ratio (green luciferase fused to IkBa over red control in TMD8 lymphoma cells), 4 h. The procedure, abridged: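 Compounds up to 46 uM were incubated four hours with TMD8 cells whose green CBG68 luciferase is fused to IkappaBalpha; red CBR luminescence normalised the signal, and concentration-effect curves were fitted to fusion, red and ratio data.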
(In general: qHTS replaces the single test concentration by a dilution series.)

Setting [1] is: measured here: CBR red luminescence, cell number.
Setting [2] is: measured here: IkBa-CBG green luminescence.

For the compound `O=C(CN(c1ccccc1)S(=O)(=O)c1ccccc1[N+](=O)[O-])Nc1cccnc1`, under setting [1], the concentration at half-maximal activity (AC50) was 3.16 µM [falling, partial curve, poor fit].
The same measure, in the same setting: the same measure for `C=CCNC(=O)c1ccccc1NS(=O)(=O)c1ccc(SC)cc1`: 6.51 µM [rising, single point]; for `COC(=O)c1nn(-c2ccc(-c3ccccc3)cc2)cc1O`: 10 µM [falling, single point]; for `COc1ccc(-c2cc(C(=O)Nc3cc(Br)ccc3O)no2)cc1`: 0.708 µM [falling, partial curve, poor fit].
The same measure, in the same setting: the result for `CC1CCCCN1Cc1c(O)ccc2c(=O)c(-c3nc4ccccc4s3)c(N)oc12` (configuration not stated) reads 13 µM [falling, partial curve]; that for `COC(=O)N/N=C\c1ccccc1OC/C=C/c1ccccc1`, 0.355 µM [rising, full curve, poor fit]; that for `O=c1nc(Nc2ccc(Br)cc2)sc2ccc([N+](=O)[O-])cc12`, 10 µM [falling, partial curve, poor fit].
Still for that read-out and setting: the result for `O=C(Nc1ccccc1C(F)(F)F)NC1CCCCC1` reads 16.4 µM [rising, partial curve, poor fit]; that for `C=CCOC(=O)c1[nH]c2c(c1C)C(=O)CC(c1ccco1)C2` (configuration not stated), 0.58 µM [rising, full curve]; that for `CC1CCCCN1S(=O)(=O)c1ccc(N(C(=O)c2cnccn2)C(C(=O)NC2CCCCC2)c2cccs2)cc1` (configuration not stated), 20.6 µM [falling, partial curve, poor fit].
Take `COc1ccc(C(=O)N2CCC(n3c(C)nc4cc(F)ccc43)CC2)cc1OC`: the AC50 under setting [1] was 12.6 µM [rising, partial curve, poor fit].
On the same count and under the same terms, the result for `O=C(NC1=NCCS1)c1ccc(Cl)s1` reads 8.2 µM [rising, partial curve, poor fit].
Take `CCc1ccc(/C=C2\SC(=S)N(CCC(=O)NC3=NCCS3)C2=O)cc1`: the AC50 by setting is: under setting [1], 4.47 µM [falling, full curve, poor fit]; under setting [2], 35.5 µM [falling, partial curve, poor fit].
In the case of `Cc1cc(C)n(-c2ccc(C(=O)OCC(=O)Nc3ccccc3[N+](=O)[O-])cc2)n1`, under setting [1], the AC50 was 2.59 µM [rising, partial curve, poor fit].
Take `O=C(N[C@@H](Cc1ccccc1)c1nc2ccccc2[nH]1)c1cc([N+](=O)[O-])ccc1Cl`: the concentration at half-maximal activity (AC50) under setting [1] was 23.1 µM [falling, single point].
Consider `CCOC(=O)c1cc(C#N)c(NCc2ccccc2)nc1C`, for which, under setting [1], the AC50 was 11.2 µM [rising, partial curve].
Consider `Cc1cccc(-c2n[nH]c(S(C)(=O)=O)c2C#N)c1`, for which the AC50 under setting [1] is 1.78 µM [rising, full curve].
For `Cc1oc(-c2ccccc2F)nc1CS(=O)(=O)CC(=O)N1CCN(c2ccccc2)CC1`, the AC50 under setting [1] is 6.51 µM [rising, single point].
Same read-out and setting: the result for `COc1cc(/C=C/C(=O)CC(=O)/C=C/c2ccc(O)c(OC)c2)ccc1O` reads 15.8 µM [falling, single point].
Same read-out and setting: the result for `CC(C)(C)C(=O)Nc1ccc(C(=O)NNC(=O)Cc2ccccc2)cc1` reads 10.3 µM [rising, partial curve]; that for `CN(C)CC(C)(C)CNS(=O)(=O)c1ccc(Cl)c(Cl)c1`, 25.1 µM [falling, partial curve, poor fit].
Still for that read-out and setting: the same measure for `CCOC(=O)c1c(-c2cccc([N+](=O)[O-])c2)csc1NC(=O)C1CCCCC1`: 2.59 µM [rising, full curve, poor fit].
`Cc1ccc(/C=N/NC(=O)c2cc(-c3cccnc3)nc3ccccc23)cc1`: the concentration at half-maximal activity (AC50) is 3.55 µM [rising, full curve, poor fit] under setting [1] and 3.55 µM [falling, full curve] under setting [2].
Consider `COc1cc(/C=C2\SC(N)=NC2=O)ccc1O`, for which the AC50 under setting [1] is 11.2 µM [falling, partial curve].
Turning to `COc1ccc2c(c1)c1ncn(Cc3ccc(F)cc3)c(=O)c1n2C`, the half-maximal activity concentration (AC50) under setting [1] is 35.5 µM [rising, single point].
As for `N#C/C(=C\C=C\c1ccccc1[N+](=O)[O-])C(=O)NCc1ccccc1`, the AC50 under setting [1] was 12.6 µM [falling, single point] and the concentration at half-maximal activity (AC50) under setting [2] is 2.51 µM [falling, full curve, poor fit].
With `Cc1c(Cl)cccc1Nc1nn2c(=O)c3ccccc3nc2s1`, the half-maximal activity concentration (AC50) under setting [1] is 3.55 µM [falling, partial curve, poor fit].
Regarding `C[N+](C)(C)CCOC(=O)C1(c2ccccc2)CCCC1`, the AC50 under setting [1] was 0.146 µM [falling, full curve, poor fit].
The same measure, in the same setting: the result for `COc1ccc(CNS(=O)(=O)c2c(C(=O)N3CCCCC3)c(C)n(C)c2C)cc1` reads 11.2 µM [rising, partial curve, poor fit].
The same measure, in the same setting: the result for `CCOC(=O)c1ccc(NC(=O)CN2C(=O)NC3(CCCCCCC3)C2=O)cc1` reads 18.4 µM [falling, single point]; that for `O=C(N/N=C/c1ccco1)c1ccc2nc[nH]c2c1`, 12.6 µM [falling, single point].
The same measure, in the same setting: the same measure for `COC(=O)C1CCN(c2nc3ccccc3nc2C(C#N)C(=O)NCCc2ccccc2)CC1` (configuration not stated): 0.708 µM [falling, full curve, poor fit]; for `Brc1ccc2oc(-c3ccn[nH]3)cc2c1`: 1.26 µM [rising, full curve, poor fit]; for `Cc1ccc(N2C(=O)Nc3cc(Cl)c(Cl)cc3N2O)cc1Cl`: 31.6 µM [falling, single point].
For `Cc1cccc(CS(=O)(=O)c2nnc([C@H](Cc3ccccc3)NC(=O)OC(C)(C)C)o2)c1`, the AC50 reads like this: under setting [1], 16.4 µM [falling, partial curve]; under setting [2], 13 µM [rising, partial curve, poor fit].
Consider `CCOC(=O)c1c(NC(=O)CSc2nnc(-c3ccccc3)n2CC)sc(C(C)=O)c1C`, for which the AC50 under setting [1] was 11.2 µM [falling, partial curve].
The same measure, in the same setting: the same measure for `COc1ccc(OC)c(/C=C/C(=O)c2ccc3c(c2)OCO3)c1`: 16.4 µM [falling, partial curve]; for `COc1ccc(OC)c(S(=O)(=O)Nc2ccc3c(c2)n(C)c(=O)n3C)c1`: 11.2 µM [rising, partial curve].

As a reminder, the AC50 is the concentration giving half of the maximal activity seen.
